Measured values reported in paper PMC10951237.
Results are given in words; binding and its absence hold for the method and conditions named. For some assays here: Binding seen in cells or lysates may run through a third protein. Some entries that bind do so weakly or less than the wild type.

By UniProt entry, the sequences of proteins in these tests, tags left out. Where a name states a change or a piece, a line headed by the entry shows the natural chain unless it says otherwise. Chains listed by the source or under a name are the forms on record and can include a tag or linker. Residues count along the entry.
UniProt Q15116: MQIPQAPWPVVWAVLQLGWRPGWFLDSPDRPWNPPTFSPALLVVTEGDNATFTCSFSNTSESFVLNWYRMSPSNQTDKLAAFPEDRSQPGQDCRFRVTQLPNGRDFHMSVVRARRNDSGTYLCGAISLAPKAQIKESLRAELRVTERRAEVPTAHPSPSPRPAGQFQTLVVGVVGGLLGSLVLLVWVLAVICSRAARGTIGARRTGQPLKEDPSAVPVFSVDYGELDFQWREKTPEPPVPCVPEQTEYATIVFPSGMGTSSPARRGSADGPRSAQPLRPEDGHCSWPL
PD-1 on 293 T cells transfected with PD-1: residues 25-288 of Q15116
human-Fc-tagged PD-1 (wild type), overexpressed in 293 T cells: residues 25-170 of Q15116
UniProt P47929: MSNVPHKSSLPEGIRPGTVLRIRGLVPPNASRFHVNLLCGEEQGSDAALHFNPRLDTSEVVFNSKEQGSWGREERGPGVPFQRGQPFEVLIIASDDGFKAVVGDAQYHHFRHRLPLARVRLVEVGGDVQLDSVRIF

Key:
[1] = biological target: PD-1 on 293 T cells transfected with PD-1 (human) (UniProt Q15116); assay: surface binding assay; galectin 7 on 293 T cells transfected with PD-1; conditions not told in the main text; only the binder purified
[2] = biological target: human-Fc-tagged PD-1 (wild type), overexpressed in 293 T cells (human) (UniProt Q15116); assay: pull-down; lysate of cells overexpressing hFc-tagged PD-1 (wild type, PNGase F treated 16 h at 37°, or glycosylation site mutants) incubated 2 h with His-tagged galectin 7 (1 uM) in PBS; captured on protein A magnetic beads, washed with PBS-T; Western blot with anti-human-Fc HRP and anti-His-HRP; also with maltose (50 mM) or Acesulfame K (50 mM); only the binder purified

Question: Which results are given for “His-tagged human galectin 7 recombinant protein (from UniProt P47929 1-136)”?
Answer: binding [1]: binds; binding [2]: binds
